Data reported in PubChem BioAssay AID1347426 (Functional Genomics Laboratory (NCATS/FGL), 2020).
Among all 31,000 sequences or so, about 1,400 (4.5%) were called active.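 How the source made its calls: active means median seed-adjusted z-score above 1 or below -1; inactive means the rest.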 The list shows a part of the results.

experiment: Novel Modifiers of Survival Motor Neuron (SMN) Protein: Gene Identification via Genome-wide siRNA Screen; conditions: HEK293T SMN2-luciferase reporter, siRNA knockdown, 72 h; actives lie on both sides;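 further: luminescence tracks full-length SMN protein made from the SMN2 reporter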
Procedure, shortened: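 Steps: spot 1 pmol siRNA, add Lipofectamine RNAiMax in serum-free DMEM, seed HEK293T SMN2–luciferase reporter cells; incubate 72 h at 37 °C; add ONE-Glo; normalize luminescence to control siRNA, log10, MAD. Candidates: |MAD| > 1.0.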

Sequence	median seed-adjusted z-score
GAUCCAUACGAAUUGGAAATT against UPRT	inactive: -0.441
CGGUUGUUAUGACAAUGGATT against FN1	inactive: -0.312
GCUCAUCCCUUAUAUACCATT against ZNF611	inactive: -0.0392
GCACUUCGCCUUCCAGGAUTT against DMPK	inactive: -0.0417
GCUGAAAGCGUGAUGGAGATT against DEAF1	inactive: 0.0416
CCAUCUAUUCAGAGACGUATT against MUTYH	inactive: 0.024
GGUCAGUGGUUAUUGAUUUTT against SCO1	inactive: -0.251
GGUGUUACUUUGGAUCCUATT against C5	inactive: 0.153
GAGGCAAAAUAGUUGGAAATT against PPM1E	inactive: -0.00802
CACUCAGACUAAAGAAAGATT against NMUR2	inactive: 0.529
CAGUGACCAUCGCAACCAGTT against CAPN10	inactive: 0.364
GGAUAUUGGAUUGCCUAGATT against TCFL5	active: 1.52
GGCAGUACAUGUACGAUGATT against AGXT2L2	inactive: -0.0495
CAGCCUAAGUAAAUACGAATT against TRPS1	inactive: -0.125
GCAAGAAUGUGACCUGCAATT against PVR	inactive: -0.324
GUAUUGUGGUAGACAUGAATT against GNL3	inactive: 0.572
GCAUCAACGGCUUCUGCGATT against GGA1	inactive: 0.172
AGAGGAAUCAGACAACAGATT against CRNN	inactive: -0.0758
CCGUCAUGGUUGAUGGAGATT against SEMA4D	inactive: 0.309
GGAGAAUAUUGUAUAAGCUTT against SNRNP40	inactive: 0.677
GCAUGCUAAUUGGACUUUATT against PON1	inactive: 0
GAUCAGUCAGUUUAUCCUATT against CHEK2	inactive: 0.585

Sequence	median seed-adjusted z-score
GGAAAGGUCUAGAUCAGGATT against SEL1L2	inactive: -0.342
GCUUUUCCUGCUUACCCUATT against GPR172A	inactive: 0.382
CAUUGAACCUGGUUACUAUTT against XPNPEP2	inactive: -0.158
UCUCUCUAUUGAUCUCCUATT against SLC22A11	inactive: 0
GGACAGUCUUCUGUAUGCATT against RBM39	active: -1.82
ACAUGCACAGCAACAAUAATT against ZNF648	inactive: -0.000686
UCACACCAACAGUAACUUATT against ROBO1	inactive: -0.096
AGAUCAUUUUCCAUACGCUTT against ZFAND2A	inactive: 0
GCCUCAUAGGGAUGACAAATT against SNX1	inactive: 0.0261
GGUCAUCAGGAUUGCCUAATT against TFRC	inactive: 0.019
GAAAGUUCGUUUCUAUCGATT against DCLK1	inactive: 0.193
CGAGGUCACCAACCAGUUUTT against UCHL3	inactive: 0.378
CCUAAGUUACUACUAGUAUTT against ENPP4	inactive: 0
CAAAGAGACGGAUCAAGAATT against TRIM38	inactive: -0.375
CACAUAUAGAGGAACCUAUTT against ZNF396	inactive: -0.247
GGAGCUACCUCACCACAAATT against ITIH5	inactive: -0.289
CCCUGUCCUUAGCACUCUATT against GFI1B	inactive: 0.154
GCCUUGUUAUCGCACAGCUTT against CLPP	inactive: -0.118
GGAUAGUAAUACUUAUGCATT against DNAH8	inactive: 0
CCUCAGGCAUGUCUUGUAATT against NUBP2	inactive: -0.21
GCUGAGAAGUGCCUACUCATT against NANOS2	inactive: 0.565
GUACUUGGAUUGUACCCAUTT against SLC13A1	inactive: 0.183

Sequence	median seed-adjusted z-score
AGGACUCGGAGAAACUGAATT against APOA4	inactive: 0.195
GAAUGAUGGUGAGAUACGATT against REPS2	inactive: 0.454
GGGUGUCUAAAGGUACAUATT against FSD2	inactive: 0.359
CAACCUGUGCAAGUACAGATT against KLK14	inactive: -0.0998
UGGUCAUUGUGAUCAGUUATT against GPR120	inactive: -0.578
GGGAGAUCCUAGAACAAGATT against TAOK1	inactive: -0.0533
GCCUCACAGGUGCAUCAUATT against TSC2	active: 1.11
GACUAUCACUCCACGAAGATT against GAS6	inactive: -0.493
GCAUCGCGGGAAAACAAUATT against PPP2R2A	inactive: -0.596
CCUUAAUGGUUGCCGGGUATT against PAPOLB	inactive: 0.749
GCAUCUCUUUUUACGAUAATT against LRRN3	inactive: 0
UAAUCAAGCUGAAAACAGATT against TRYX3	active: 2.3
GCAGAAGGCUCAGUAGCUATT against NAT5	inactive: -0.0124
CAACCCAGGCUUUAGGCAGTT against DUSP15	inactive: 0
GGUUAUGCUACCAAACAAATT against DUXA	inactive: 0
CCUUAUGAAUGUCAGCAAUTT against ZNF763	inactive: 0.236
CCGUAGCUCUUAUCUAGCATT against KCNJ2	inactive: -0.0834
GCUUACCUGCGGCGAAUUATT against ARHGEF2	inactive: 0.0929
ACUCUUCUGUGAAAUAGCATT against GLIS2	inactive: 0.206
GGAGACGGAUGGGAGUUUATT against ETS2	inactive: 0.636
GCACUCUCGUUAUACAUCATT against ZNF614	inactive: 0.0971
AGCUGACCCUGCUUAAAGATT against SLC25A22	inactive: -0.444

Sequence	median seed-adjusted z-score
CGGCUCAACUCGCAUCUCATT against CAV2	inactive: -0.00895
ACCACGCAUUAAAACCAAATT against PRKCE	inactive: 0.568
UGACCGAACUGGACACUAATT against TADA3L	inactive: 0.00625
GGCAUUUGCUUGUACCUAUTT against NEK3	inactive: 0.118
GAGUUCUGGGCAAAACUUATT against GADL1	inactive: 0
GGAUAAAUCUAUAAGCACATT against PLS1	inactive: -0.0715
CUUUGACCAUGCUACGUCATT against P4HA3	inactive: 0
CCAGUAGCUUUGCACCUGATT against PARK2	inactive: 0.146
GGUGAUGAGUGUUAAGGCATT against DTX4	inactive: 0.409
CAUCCGUACUUCAAACAAUTT against SERINC1	inactive: -0.255
GAACAGGAGAAACUCUUAATT against TRAF3IP3	inactive: 0.0238
GCACAAUUGACUUCCCUGATT against CALM2	inactive: 0.127
CGCUAUUCGGGCUCCUAUATT against RBM14	inactive: -0.0317
GGCGAUAUGAUGAUCCUGATT against HSPA9	inactive: 0.622
CCAUAUUGGUAUCUCAAUUTT against PSMA1	inactive: -0.145
GAACGAGCAUUGAAUACAATT against DCC	inactive: 0.303
GGUUGUGCCUGGAUCUAAATT against TTK	inactive: -0.658
GCAGCAAACCAGAUCCAGATT against ZBTB3	inactive: -0.0419
GUAUUCCUCAUACUAUAAATT against RNASE9	inactive: 0.188
CCAGUGCUGUCAGUACGAUTT against LY6G5B	active: -1.29
ACAACAUCAUUCAAGUGAATT against PRKAB1	inactive: 0.536
CAGUGGUGUCUAUCGAAGATT against ENO1	inactive: 0.0766

Exported with bars between the fields: part of the list above.
Sequence | median seed-adjusted z-score
CCAUCUAUUCAGAGACGUATT against MUTYH | inactive: 0.024
AGAGGAAUCAGACAACAGATT against CRNN | inactive: -0.0758
AGGACUCGGAGAAACUGAATT against APOA4 | inactive: 0.195
GGUUGUGCCUGGAUCUAAATT against TTK | inactive: -0.658

Next results.

Sequence	median seed-adjusted z-score
CUUCAGUGCUGAUCAGGUATT against NDUFA2	inactive: -0.694
CCUAAUCAGUUUACCAUUUTT against TGIF2	inactive: -0.304
GCAGCUGUAUCACUCCUUATT against TRIM27	inactive: -0.378
GCACCGUCAUUGUCAAGAATT against CLCNKB	inactive: 0.428
GAGUGGAACUAAUUGAAAATT against TRIM61	inactive: 0.0116
GGCUUUUCAUGUCGGAAGATT against TNFRSF10D	inactive: 0.0234
GUUCCAUCUGUAGUCCUAATT against TARBP2	inactive: 0.068
CAAGGAUUGUGGAGUUAAATT against BDKRB1	inactive: 0.448
GAAGGAAUUUGACUCAAUATT against NAPB	inactive: 0.716
CUACAAGACCGAGAAGUAUTT against P2RX5	inactive: 0.313
GCUCGUCUCCUAUCGAAAATT against DNMT3B	inactive: 0.0761
GGAAAUGGGUUGUCCAUAUTT against CYSLTR2	inactive: 0.0461
CCCUUCUUUUGUACUAUUUTT against ZNF202	inactive: 0.534
ACGCAUUCAUCGACAGGAATT against ATG4B	inactive: -0.703
GCCUUUCGAGAGACCAUUATT against GFM1	inactive: -0.0641
CGGUUGAAAUCGAACUGGATT against RAB41	inactive: -0.534
GGUGCGAAAAGAUCUGCAATT against S100A9	inactive: -0.0953
GGUGAUUGGAUAUAAGAAATT against SLC12A1	inactive: -0.406
GAGAAGAGCUUGGUCUAGATT against CYP4V2	inactive: 0

2 entries picked at random from those above:
Sequence	median seed-adjusted z-score
GACUAUCACUCCACGAAGATT against GAS6	inactive: -0.493
CAGCCUAAGUAAAUACGAATT against TRPS1	inactive: -0.125
